Results from patent publication US20140303228A1, “Biomarkers for Amyotrophic Lateral Sclerosis and Methods Using the Same” (METABOLON, INC., priority 2011, published 2014).

Legend:
Parameters in all cases: species or system human
[1] = Metabolomic profiling of blood plasma samples, ALS vs. symptom mimic disease subjects (Tables 5, 9); details: for % Change in ALS: blood plasma, ALS mean (172 subjects) vs symptom mimic disease mean (73 subjects), positive = increase in ALS, T-test; for Direction of change in ALS: plasma, ALS patients relative to symptom mimic disease patients, Random Forest and/or Wilcoxon (FDR < 0.15)
[2] = Plasma metabolite levels of ALS subjects over time, month 1 vs. month 12 (Table 15); details: month 1 vs month 12 after screening, 37 patients, matched-pairs T-test, positive = increase as disease progressed
[3] = Metabolomic profiling of blood plasma samples, MND vs. symptom mimic disease subjects (Table 13); details: 200 MND subjects vs 73 symptom mimic disease patients, Wilcoxon FDR < 0.15

Molecule | % Change in ALS [1] [%] | % Change with disease progression [2] | Direction of change in ALS [1] | Direction of change in MND [3]
Cc1ccc(OS(=O)(=O)O)cc1 [p-cresol sulfate] | −26 | 2% | – | –
CC(C)[C@H](NC(=O)[C@@H](N)CCC(=O)O)C(=O)O [glutamyl-valine] (H-Glu-Val-OH) | – | −17% | – | –
O=C(O)[C@H](O)[C@H](O)CO [erythronate] | −17 | −15% | – | –
O=S(=O)(O)Oc1c[nH]c2ccccc12 [3-indoxyl sulfate] | −14 | −11% | – | –
CC(C)CC(NC(=O)C1CCCN1)C(=O)O (stereo not drawn) [pro-leu] (H-Pro-Leu-OH; configuration not given here) | – | −20% | – | –
O=C(O)CCCCCCCCCCCCCCC(=O)O [hexadecanedioate] | 27 | – | Higher | Higher
N[C@@H](CCC(=O)N[C@@H](Cc1ccccc1)C(=O)O)C(=O)O [gamma-glutamylphenylalanine] | – | −22% | – | –
N[C@@H](CCC(=O)O)C(=O)O [glutamate] | – | −19% | – | –
CC(C)C(O)C(=O)O (stereo not drawn) [alpha-hydroxyisovalerate] | – | −13% | – | –
C[N+](C)(C)CC(=O)CC(=O)[O-] [3-dehydrocarnitine] | −22 | – | Lower | Lower
NC(=O)C[C@H](N)C(=O)O [asparagine] | −8 | 8% | – | –
O=c1[nH]cc([C@@H]2O[C@H](CO)[C@@H](O)[C@H]2O)c(=O)[nH]1 [pseudouridine] | – | 4% and −1% | – | –
CCCCCCCCCCCCC/C=C/[C@@H](O)[C@H](COP(=O)([O-])OCC[N+](C)(C)C)NC(=O)CCCCCCCCCCCCCCCCC [stearoyl sphingomyelin] | 10 | −3% | – | –
O=C(O)CCc1c[nH]c2ccccc12 [indolepropionate] | −15 | −21% | – | –
CCCCCCCC(=O)O [caprylate (8:0), caprylate] | 47 | 2% | – | –
CC(=O)OP(=O)(O)O [acetyl phosphate] | – | −1% | – | –
CCC(N)C(=O)O (centres unmarked) [2-aminobutyrate] | 6 | −2% | – | –
O=C(O)[C@@H]1CCCN1 [proline] | −10.00 | −14% | Lower | –
CCCc1oc(CCC(=O)O)c(C(=O)O)c1C [3-carboxy-4-methyl-5-propyl-2-furanpropanoate] | −95 | 43% | – | –
N[C@@H](CS)C(=O)O [cysteine] | −10 | −14% | Lower | –
O=C(O)[C@@H]1C[C@@H](O)CN1 (relative stereo) [trans-4-hydroxyproline] | −14 | 1% | – | –
CCCCC/C=C\C/C=C\C/C=C\C/C=C\CCCC(=O)OC[C@@H](O)COP(=O)(O)OC1[C@H](O)[C@H](O)C(O)[C@H](O)[C@H]1O (some centres unmarked) [1-arachidonoylglycerophosphoinositol] | 12 | – | – | –
Cc1c(O)cc2c(c1C)OC(C)(CCC(=O)O)CC2 (centres unmarked) [gamma-CEHC] | −10 | – | – | –
C=Cc1ccc(OS(=O)(=O)O)cc1 [4-vinylphenol sulfate] | −29 | – | Lower | –
eicosenoate [eicosenoate (20:1n9 or 11)] | 28 | – | – | –
CCCCCCCCCCCCCCCCCC(N)=O [stearamide] | – | −15% | – | –
C=CC1=C(C)/C(=C/C2=NC(=C\c3[nH]c(/C=C4\NC(=O)C(C)=C4C=C)c(C)c3CCC(=O)O)/C(CCC(=O)O)=C2C)NC1=O [biliverdin] | 9 | – | – | –
Cn1c(=O)c2c([nH]c(=O)n2C)n(C)c1=O [1,3,7-trimethylurate] | −20 | – | – | –

Several values for one entry are separate records, joined by “and”; a condition that tells them apart may be missing. Identical values can stand only once. Counter-ions that a name gives are not always drawn. Where a SMILES comes first, the peptide text is derived from it.
